# Measured data: PubChem BioAssay AID1259425 (University of Nebraska Medical Center, 2018)
# Screen: 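Find knockdowns that reproduce the gene expression pattern seen when KSR1 is lost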 (primary screen)
# System: HCT116 human colon cancer cells
# Knock-down reagent: siRNA pool against human genes, 50 nM siRNA
# Measured: 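After 50 nM siRNA pool, branched-DNA assay measures six marker transcripts per well, minus blank, normalised to the geometric mean of two housekeeping transcripts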
# Scale: BNIP3L mRNA: higher = more BNIP3L transcript after knockdown; NDRG1 mRNA: higher = more NDRG1 transcript after knockdown; BNIP3 mRNA: higher = more BNIP3 transcript after knockdown; ALDOC mRNA: higher = more ALDOC transcript after knockdown; ACSL5 mRNA: higher = more ACSL5 transcript after knockdown
# The deposit covers about 14,000 reagents; shown is a random part of them. Not stated in the record: the time to read-out.
Target gene,"BNIP3L mRNA, set 1","NDRG1 mRNA, set 1","BNIP3 mRNA, set 1","ALDOC mRNA, set 1","ACSL5 mRNA, set 1"
MPZL2,0.0773,0.2,0.268,0.0298,0.247
GDF9,0.0561,0.232,0.202,0.0232,0.239
CRHBP,0.0837,0.0959,0.399,0.0163,0.0798
TYW2,0.0781,0.11,0.275,0.0279,0.0717
TRIP4,0.0796,0.15,0.271,0.0159,0.126
MTOR,0.185,0.07,0.305,0.0111,0.36
FUT4,0.176,0.315,0.354,0.0356,0.173
SF3B3,0.316,0.876,0.32,0.0548,0.0569
ANGPT2,0.111,0.435,0.4,0.0225,0.222
ADGRG2,0.232,0.407,0.271,0.0609,0.262
SLC2A2,0.0826,0.164,0.335,0.0281,0.134
BNC2,0.0767,0.149,0.304,0.0414,0.159

An excerpt taken from the entries so far:
Target gene,"BNIP3L mRNA, set 1","NDRG1 mRNA, set 1","BNIP3 mRNA, set 1","ALDOC mRNA, set 1","ACSL5 mRNA, set 1"
CRHBP,0.0837,0.0959,0.399,0.0163,0.0798
TYW2,0.0781,0.11,0.275,0.0279,0.0717
TRIP4,0.0796,0.15,0.271,0.0159,0.126

Continued:
Target gene,"BNIP3L mRNA, set 1","NDRG1 mRNA, set 1","BNIP3 mRNA, set 1","ALDOC mRNA, set 1","ACSL5 mRNA, set 1"
OR2K2,0.102,0.277,0.617,0.0531,0.198
HYOU1,0.112,0.341,0.261,0.0064,0.244
PRRG1,0.0661,0.134,0.367,0.0209,0.198
MED9,0.104,0.145,0.356,0.0219,0.0399
MAS1L,0.207,0.295,0.536,0.0347,0.228
SULT1C4,0.151,0.179,0.26,0.0192,0.151
TYRO3,0.196,0.133,0.436,0.0227,0.455
PRTFDC1,0.0532,0.229,0.3,0.0217,0.259
